Measurements reported in the supplement of paper PMC4635364.
Where a name gives a salt, the structure may show the parent alone. The list shows a part of the results. Single values are uncertain here, since repeats match poorly.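 Cells: ReNCell VM human fetal ventral-midbrain neural progenitors, differentiated mitogen-free. Blinded raters compared doublecortin-stained (early neurons) or tyrosine hydroxylase-stained (dopaminergic neurons) images with untreated wells, where 0 means no change. After repeats and both raters were averaged, compounds scoring 2 or above became hits for retesting.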

Legend:
ReNCell VM [1] = experiment: neuronal differentiation score (DCX+ cell fraction vs untreated, manual image score) (score (-3 to 3)); higher = more neuronal differentiation; settings: 2 uM, 2 weeks
ReNCell VM [2] = experiment: dopaminergic neuron differentiation score (TH+ cell fraction vs untreated, manual image score) (score (0 to 3)); higher = more TH+ dopaminergic neuron differentiation; settings: 2 uM, 4 weeks, BDNF 10 ng/ml + GDNF 10 ng/ml

Cn1c(=O)c2[nH]cnc2n(C)c1=O [Aminophylline]
inactive: neuronal differentiation score (ReNCell VM [1]; library: Phytochemical) -1 | dopaminergic neuron differentiation score (ReNCell VM [2]; library: Phytochemical) 0

Cc1noc(NS(=O)(=O)c2ccc(N)cc2)c1C [Sulfisoxazole]
inactive: neuronal differentiation score (ReNCell VM [1]; library: Prestwick) 0 | neuronal differentiation score (ReNCell VM [1]; library: Tocriscreen) 0 | dopaminergic neuron differentiation score (ReNCell VM [2]; library: Prestwick) 0 | dopaminergic neuron differentiation score (ReNCell VM [2]; library: Tocriscreen) 0

CN(C)CC/C=C1/c2ccccc2Sc2ccc(Cl)cc21 [Chlorprothixene hydrochloride]
inactive: neuronal differentiation score (ReNCell VM [1]; library: LOPAC) 0 | neuronal differentiation score (ReNCell VM [1]; library: Prestwick) 0 | dopaminergic neuron differentiation score (ReNCell VM [2]; library: LOPAC) 0 | dopaminergic neuron differentiation score (ReNCell VM [2]; library: Prestwick) 0

Pulled by structure from the list above, 2 records:
CN(C)CC/C=C1/c2ccccc2Sc2ccc(Cl)cc21 [Chlorprothixene hydrochloride]
inactive: neuronal differentiation score (ReNCell VM [1]; library: LOPAC) 0 | neuronal differentiation score (ReNCell VM [1]; library: Prestwick) 0 | dopaminergic neuron differentiation score (ReNCell VM [2]; library: LOPAC) 0 | dopaminergic neuron differentiation score (ReNCell VM [2]; library: Prestwick) 0

Cn1c(=O)c2[nH]cnc2n(C)c1=O [Aminophylline]
inactive: neuronal differentiation score (ReNCell VM [1]; library: Phytochemical) -1 | dopaminergic neuron differentiation score (ReNCell VM [2]; library: Phytochemical) 0

Continuation.

CC(=O)N[C@@H](CC(=O)N[C@@H](CCC(=O)O)C(=O)O)C(=O)O [Spaglumic acid]
inactive: neuronal differentiation score (ReNCell VM [1]; library: Prestwick) 0 | neuronal differentiation score (ReNCell VM [1]; library: Tocriscreen) 0 | dopaminergic neuron differentiation score (ReNCell VM [2]; library: Prestwick) 0 | dopaminergic neuron differentiation score (ReNCell VM [2]; library: Tocriscreen) 0

CN1[C@@H]2CC[C@H]1C[C@@H](OC(=O)c1c[nH]c3ccccc13)C2 [Tropisetron hydrochloride]
inactive: neuronal differentiation score (ReNCell VM [1]; library: Tocriscreen) 0 | dopaminergic neuron differentiation score (ReNCell VM [2]; library: Tocriscreen) 0

OCCN1CCN(CCCN2c3ccccc3C=Cc3ccccc32)CC1 [Opipramol dihydrochloride]
inactive: neuronal differentiation score (ReNCell VM [1]; library: LOPAC) 0 | neuronal differentiation score (ReNCell VM [1]; library: Prestwick) 0 | dopaminergic neuron differentiation score (ReNCell VM [2]; library: LOPAC) 0 | dopaminergic neuron differentiation score (ReNCell VM [2]; library: Prestwick) 0

CC(COc1ccccc1)N(CCCl)Cc1ccccc1 (centres undefined) [Phenoxybenzamine hydrochloride]
inactive: neuronal differentiation score (ReNCell VM [1]; library: Prestwick) 0 | dopaminergic neuron differentiation score (ReNCell VM [2]; library: LOPAC) 0 | dopaminergic neuron differentiation score (ReNCell VM [2]; library: Prestwick) 0
active: neuronal differentiation score (ReNCell VM [1]; library: LOPAC) 3

CN(C)CCCN1c2ccccc2Sc2ccccc21 [Promazine hydrochloride]
inactive: neuronal differentiation score (ReNCell VM [1]; library: LOPAC) 0 | neuronal differentiation score (ReNCell VM [1]; library: Prestwick) 0 | dopaminergic neuron differentiation score (ReNCell VM [2]; library: LOPAC) 0 | dopaminergic neuron differentiation score (ReNCell VM [2]; library: Prestwick) 0

OC(CCN1CCCCC1)(c1ccccc1)C1CC2C=CC1C2 (centres undefined) [Biperiden hydrochloride]
inactive: neuronal differentiation score (ReNCell VM [1]; library: LOPAC) 0 | neuronal differentiation score (ReNCell VM [1]; library: Prestwick) 0 | dopaminergic neuron differentiation score (ReNCell VM [2]; library: LOPAC) 0 | dopaminergic neuron differentiation score (ReNCell VM [2]; library: Prestwick) 0

CN1CCc2cc(Cl)c(O)cc2[C@@H](c2ccccc2)C1
inactive: neuronal differentiation score (ReNCell VM [1]; library: LOPAC) 1 | neuronal differentiation score (ReNCell VM [1]; library: Tocriscreen) -2 | dopaminergic neuron differentiation score (ReNCell VM [2]; library: LOPAC) 0 | dopaminergic neuron differentiation score (ReNCell VM [2]; library: Tocriscreen) 0

CC[N+](CC)(CC)CCOc1ccc(/C=C/c2ccccc2)cc1
inactive: neuronal differentiation score (ReNCell VM [1]; library: LOPAC) 0 | neuronal differentiation score (ReNCell VM [1]; library: Tocriscreen) 0 | dopaminergic neuron differentiation score (ReNCell VM [2]; library: LOPAC) 0 | dopaminergic neuron differentiation score (ReNCell VM [2]; library: Tocriscreen) 0

CCN(CCCCOC(=O)c1ccc(OC)c(OC)c1)C(C)Cc1ccc(OC)cc1 (centres undefined) [Mebeverine hydrochloride]
inactive: neuronal differentiation score (ReNCell VM [1]; library: Prestwick) 0 | dopaminergic neuron differentiation score (ReNCell VM [2]; library: Prestwick) 0

Nc1c(Br)cc(Br)cc1CN[C@H]1CC[C@H](O)CC1 [Ambroxol hydrochloride]
inactive: neuronal differentiation score (ReNCell VM [1]; library: Prestwick) 0 | neuronal differentiation score (ReNCell VM [1]; library: Tocriscreen) 0 | dopaminergic neuron differentiation score (ReNCell VM [2]; library: Prestwick) 0 | dopaminergic neuron differentiation score (ReNCell VM [2]; library: Tocriscreen) 0

O=c1c2ccccc2nc2n1CCc1c-2[nH]c2ccccc12 [Rutaecarpine]
active: dopaminergic neuron differentiation score (ReNCell VM [2]; library: LOPAC) 3
inactive: neuronal differentiation score (ReNCell VM [1]; library: LOPAC) 0 | neuronal differentiation score (ReNCell VM [1]; library: Phytochemical) 0 | dopaminergic neuron differentiation score (ReNCell VM [2]; library: Phytochemical) 0

Brc1c(NC2=NCCN2)ccc2nccnc12
inactive: neuronal differentiation score (ReNCell VM [1]; library: LOPAC) 0 | neuronal differentiation score (ReNCell VM [1]; library: Tocriscreen) 0 | dopaminergic neuron differentiation score (ReNCell VM [2]; library: LOPAC) 0 | dopaminergic neuron differentiation score (ReNCell VM [2]; library: Tocriscreen) 0

Nc1nc2ccc(OC(F)(F)F)cc2s1 [Riluzole hydrochloride]
inactive: neuronal differentiation score (ReNCell VM [1]; library: Prestwick) 0 | neuronal differentiation score (ReNCell VM [1]; library: Tocriscreen) 0 | dopaminergic neuron differentiation score (ReNCell VM [2]; library: Prestwick) 0 | dopaminergic neuron differentiation score (ReNCell VM [2]; library: Tocriscreen) 0

Nc1cc(-c2ccncc2)c[nH]c1=O [Amrinone]
inactive: neuronal differentiation score (ReNCell VM [1]; library: Prestwick) 1 | dopaminergic neuron differentiation score (ReNCell VM [2]; library: Prestwick) 0

CN1CCN(c2c(F)cc3c(=O)c(C(=O)O)cn(CCF)c3c2F)CC1 [Fleroxacin]
inactive: neuronal differentiation score (ReNCell VM [1]; library: Prestwick) 0 | dopaminergic neuron differentiation score (ReNCell VM [2]; library: Prestwick) 0

Cc1ccc2c(c1)c1c3n2CCNC3CCC1 (centres undefined) [Pirlindole mesylate]
inactive: neuronal differentiation score (ReNCell VM [1]; library: Prestwick) 0 | neuronal differentiation score (ReNCell VM [1]; library: Tocriscreen) 0 | dopaminergic neuron differentiation score (ReNCell VM [2]; library: Prestwick) 0 | dopaminergic neuron differentiation score (ReNCell VM [2]; library: Tocriscreen) 0

CCN(CC)CCCC(C)Nc1ccnc2cc(Cl)ccc12 (centres undefined) [Chloroquine diphosphate]
inactive: neuronal differentiation score (ReNCell VM [1]; library: LOPAC) 0 | neuronal differentiation score (ReNCell VM [1]; library: Prestwick) 0 | dopaminergic neuron differentiation score (ReNCell VM [2]; library: LOPAC) 0 | dopaminergic neuron differentiation score (ReNCell VM [2]; library: Prestwick) 0

Cn1ccc2cc3c(cc21)CCN3C(=O)Nc1cccnc1
inactive: neuronal differentiation score (ReNCell VM [1]; library: LOPAC) 0 | neuronal differentiation score (ReNCell VM [1]; library: Tocriscreen) -1 | dopaminergic neuron differentiation score (ReNCell VM [2]; library: LOPAC) 0 | dopaminergic neuron differentiation score (ReNCell VM [2]; library: Tocriscreen) 0

NC(=O)c1ccccc1 [Benzamide]
inactive: neuronal differentiation score (ReNCell VM [1]; library: LOPAC) 0 | dopaminergic neuron differentiation score (ReNCell VM [2]; library: LOPAC) 0

O=C1NCC2(CCN(CCc3ccccc3)CC2)O1
inactive: neuronal differentiation score (ReNCell VM [1]; library: Spectrum) 0 | dopaminergic neuron differentiation score (ReNCell VM [2]; library: Spectrum) 0

CN(C)CCC(c1ccccc1)c1ccccn1 (centres undefined) [Pheniramine maleate]
inactive: neuronal differentiation score (ReNCell VM [1]; library: LOPAC) 0 | neuronal differentiation score (ReNCell VM [1]; library: Prestwick) 1 | dopaminergic neuron differentiation score (ReNCell VM [2]; library: LOPAC) 0 | dopaminergic neuron differentiation score (ReNCell VM [2]; library: Prestwick) 0

O=C(O)C1CCCN(CCC=C(c2ccccc2)c2ccccc2)C1 (centres undefined)
inactive: neuronal differentiation score (ReNCell VM [1]; library: LOPAC) 0 | neuronal differentiation score (ReNCell VM [1]; library: Tocriscreen) 0 | dopaminergic neuron differentiation score (ReNCell VM [2]; library: LOPAC) 0 | dopaminergic neuron differentiation score (ReNCell VM [2]; library: Tocriscreen) 0

O=C(O)c1cc(O)c2ccc(Cl)cc2n1 [7-Chlorokynurenic acid]
inactive: neuronal differentiation score (ReNCell VM [1]; library: LOPAC) 0 | neuronal differentiation score (ReNCell VM [1]; library: Tocriscreen) 0 | dopaminergic neuron differentiation score (ReNCell VM [2]; library: LOPAC) 0 | dopaminergic neuron differentiation score (ReNCell VM [2]; library: Tocriscreen) 0

CN(C)c1ccc(O)c2c1C[C@H]1C[C@H]3[C@H](N(C)C)C(O)=C(C(N)=O)C(=O)[C@@]3(O)C(O)=C1C2=O [Minocycline hydrochloride]
inactive: neuronal differentiation score (ReNCell VM [1]; library: LOPAC) 0 | neuronal differentiation score (ReNCell VM [1]; library: Prestwick) 0 | dopaminergic neuron differentiation score (ReNCell VM [2]; library: LOPAC) 0 | dopaminergic neuron differentiation score (ReNCell VM [2]; library: Prestwick) 0
